26 targets from the supplement of paper PMC6411743 can be followed below.

The chains behind the UniProt entries cited, without tags or fusion partners. Where a name states a change or a piece, a line headed by the entry shows the natural chain unless it says otherwise.
UniProt Q6P9B6: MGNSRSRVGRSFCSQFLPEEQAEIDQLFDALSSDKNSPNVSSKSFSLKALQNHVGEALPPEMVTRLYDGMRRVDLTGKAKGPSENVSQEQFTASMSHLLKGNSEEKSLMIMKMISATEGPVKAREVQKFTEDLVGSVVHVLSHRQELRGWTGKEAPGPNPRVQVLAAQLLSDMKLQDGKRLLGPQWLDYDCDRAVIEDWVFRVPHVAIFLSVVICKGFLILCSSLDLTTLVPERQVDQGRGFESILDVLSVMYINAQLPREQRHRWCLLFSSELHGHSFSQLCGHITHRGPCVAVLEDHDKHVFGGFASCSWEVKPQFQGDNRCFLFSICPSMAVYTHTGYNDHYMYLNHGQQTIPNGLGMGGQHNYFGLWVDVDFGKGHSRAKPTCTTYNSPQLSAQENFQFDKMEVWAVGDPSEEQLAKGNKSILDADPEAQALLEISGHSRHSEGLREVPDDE
UniProt Q6WKZ4: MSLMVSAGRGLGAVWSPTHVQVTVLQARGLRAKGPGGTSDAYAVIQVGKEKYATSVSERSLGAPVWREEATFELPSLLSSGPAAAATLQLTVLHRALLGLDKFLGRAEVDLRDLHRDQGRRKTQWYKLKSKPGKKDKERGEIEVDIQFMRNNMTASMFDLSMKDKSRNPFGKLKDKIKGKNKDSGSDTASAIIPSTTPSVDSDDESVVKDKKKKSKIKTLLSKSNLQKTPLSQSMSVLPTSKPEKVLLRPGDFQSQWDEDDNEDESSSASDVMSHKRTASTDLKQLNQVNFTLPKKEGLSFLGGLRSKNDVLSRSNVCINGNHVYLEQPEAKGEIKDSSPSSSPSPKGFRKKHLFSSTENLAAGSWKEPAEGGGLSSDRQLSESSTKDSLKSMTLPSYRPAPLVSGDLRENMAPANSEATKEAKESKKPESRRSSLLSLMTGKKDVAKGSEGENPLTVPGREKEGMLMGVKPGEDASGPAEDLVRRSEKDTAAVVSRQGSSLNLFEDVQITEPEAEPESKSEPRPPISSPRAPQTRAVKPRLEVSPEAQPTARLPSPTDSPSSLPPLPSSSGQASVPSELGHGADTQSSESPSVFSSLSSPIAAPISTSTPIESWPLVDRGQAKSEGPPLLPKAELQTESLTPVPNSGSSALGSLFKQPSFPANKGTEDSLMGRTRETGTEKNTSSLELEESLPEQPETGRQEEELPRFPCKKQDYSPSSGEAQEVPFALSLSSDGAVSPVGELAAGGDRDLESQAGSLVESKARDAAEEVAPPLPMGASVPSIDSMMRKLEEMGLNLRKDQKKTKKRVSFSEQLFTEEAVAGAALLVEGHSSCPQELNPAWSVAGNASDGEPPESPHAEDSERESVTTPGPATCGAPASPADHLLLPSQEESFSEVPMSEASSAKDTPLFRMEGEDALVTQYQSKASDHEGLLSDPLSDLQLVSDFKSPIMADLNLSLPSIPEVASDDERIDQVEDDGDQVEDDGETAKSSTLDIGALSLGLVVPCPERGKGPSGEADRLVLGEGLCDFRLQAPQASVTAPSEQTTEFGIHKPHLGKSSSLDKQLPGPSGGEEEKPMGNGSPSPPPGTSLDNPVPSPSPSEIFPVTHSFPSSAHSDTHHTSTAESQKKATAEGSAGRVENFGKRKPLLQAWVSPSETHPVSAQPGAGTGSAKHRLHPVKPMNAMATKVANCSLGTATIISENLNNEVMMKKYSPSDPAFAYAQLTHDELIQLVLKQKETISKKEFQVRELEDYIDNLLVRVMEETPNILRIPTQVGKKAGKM
UniProt Q7L4I2: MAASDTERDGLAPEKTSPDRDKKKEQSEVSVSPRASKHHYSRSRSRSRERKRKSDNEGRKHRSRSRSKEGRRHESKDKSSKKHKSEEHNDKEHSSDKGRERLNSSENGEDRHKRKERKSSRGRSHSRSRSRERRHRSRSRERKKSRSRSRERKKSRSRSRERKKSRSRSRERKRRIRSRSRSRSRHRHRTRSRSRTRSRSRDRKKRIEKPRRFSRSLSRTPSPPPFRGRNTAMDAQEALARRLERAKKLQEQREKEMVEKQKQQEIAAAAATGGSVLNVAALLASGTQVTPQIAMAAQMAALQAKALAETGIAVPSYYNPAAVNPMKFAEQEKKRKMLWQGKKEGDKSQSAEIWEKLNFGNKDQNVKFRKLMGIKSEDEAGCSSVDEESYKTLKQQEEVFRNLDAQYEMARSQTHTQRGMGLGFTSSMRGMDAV
UniProt Q7KYR7: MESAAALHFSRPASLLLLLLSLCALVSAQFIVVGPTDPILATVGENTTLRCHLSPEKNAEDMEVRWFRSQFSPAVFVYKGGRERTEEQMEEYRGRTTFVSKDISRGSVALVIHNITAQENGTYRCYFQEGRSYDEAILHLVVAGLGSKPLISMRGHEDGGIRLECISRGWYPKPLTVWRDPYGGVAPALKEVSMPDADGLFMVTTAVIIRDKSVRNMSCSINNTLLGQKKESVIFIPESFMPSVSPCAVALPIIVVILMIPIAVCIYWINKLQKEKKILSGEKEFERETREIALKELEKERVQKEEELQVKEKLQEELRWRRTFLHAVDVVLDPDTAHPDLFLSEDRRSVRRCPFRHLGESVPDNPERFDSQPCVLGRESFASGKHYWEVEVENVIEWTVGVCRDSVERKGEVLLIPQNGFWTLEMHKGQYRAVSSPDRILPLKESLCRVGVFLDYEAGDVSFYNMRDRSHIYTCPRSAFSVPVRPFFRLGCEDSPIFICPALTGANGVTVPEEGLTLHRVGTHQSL
UniProt Q5VUM1: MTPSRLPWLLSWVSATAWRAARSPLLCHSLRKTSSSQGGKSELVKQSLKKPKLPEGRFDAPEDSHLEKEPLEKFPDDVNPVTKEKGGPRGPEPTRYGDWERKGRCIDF
UniProt O14880: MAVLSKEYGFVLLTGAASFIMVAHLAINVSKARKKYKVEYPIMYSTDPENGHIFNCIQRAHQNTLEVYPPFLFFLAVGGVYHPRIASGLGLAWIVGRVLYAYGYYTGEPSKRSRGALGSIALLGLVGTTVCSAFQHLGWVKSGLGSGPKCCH
UniProt Q6P9B9, whole entry: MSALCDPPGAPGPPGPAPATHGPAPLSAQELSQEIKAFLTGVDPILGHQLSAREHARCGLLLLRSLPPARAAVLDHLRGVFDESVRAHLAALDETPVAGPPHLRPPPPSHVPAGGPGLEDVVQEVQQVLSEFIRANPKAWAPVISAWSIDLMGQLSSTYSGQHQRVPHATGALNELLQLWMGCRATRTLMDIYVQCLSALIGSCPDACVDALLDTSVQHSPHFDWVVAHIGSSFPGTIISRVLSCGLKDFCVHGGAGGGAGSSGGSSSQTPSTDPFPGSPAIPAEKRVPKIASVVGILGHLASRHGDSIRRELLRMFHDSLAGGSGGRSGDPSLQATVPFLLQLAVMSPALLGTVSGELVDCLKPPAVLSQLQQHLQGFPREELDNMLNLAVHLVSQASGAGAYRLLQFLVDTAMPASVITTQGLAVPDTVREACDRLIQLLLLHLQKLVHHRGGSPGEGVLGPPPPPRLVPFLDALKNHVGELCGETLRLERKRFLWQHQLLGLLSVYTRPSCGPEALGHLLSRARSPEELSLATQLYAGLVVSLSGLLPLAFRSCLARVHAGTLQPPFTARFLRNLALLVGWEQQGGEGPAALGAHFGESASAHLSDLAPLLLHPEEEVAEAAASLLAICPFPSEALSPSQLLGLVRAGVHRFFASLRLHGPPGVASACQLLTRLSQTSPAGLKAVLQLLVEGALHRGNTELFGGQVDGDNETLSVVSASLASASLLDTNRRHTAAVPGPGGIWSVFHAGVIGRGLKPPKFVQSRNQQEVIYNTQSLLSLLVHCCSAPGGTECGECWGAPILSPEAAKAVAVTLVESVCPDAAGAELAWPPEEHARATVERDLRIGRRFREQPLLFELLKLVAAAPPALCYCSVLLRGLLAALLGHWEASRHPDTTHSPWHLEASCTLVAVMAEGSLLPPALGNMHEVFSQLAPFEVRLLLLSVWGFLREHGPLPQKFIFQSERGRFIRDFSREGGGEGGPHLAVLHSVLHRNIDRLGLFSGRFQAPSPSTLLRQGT
UniProt Q5XUX1: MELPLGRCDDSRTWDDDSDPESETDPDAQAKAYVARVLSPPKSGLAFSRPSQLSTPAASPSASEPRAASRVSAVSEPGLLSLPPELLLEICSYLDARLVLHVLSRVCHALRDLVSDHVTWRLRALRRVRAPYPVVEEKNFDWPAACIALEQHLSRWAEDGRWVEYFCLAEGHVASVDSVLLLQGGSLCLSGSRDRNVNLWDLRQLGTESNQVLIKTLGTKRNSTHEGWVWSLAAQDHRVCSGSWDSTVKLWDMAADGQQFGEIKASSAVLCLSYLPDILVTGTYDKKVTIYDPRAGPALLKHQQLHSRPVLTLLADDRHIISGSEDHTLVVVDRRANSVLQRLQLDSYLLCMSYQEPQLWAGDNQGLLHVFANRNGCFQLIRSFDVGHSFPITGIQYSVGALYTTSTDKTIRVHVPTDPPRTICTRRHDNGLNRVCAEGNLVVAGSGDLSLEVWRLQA
UniProt Q6FI81: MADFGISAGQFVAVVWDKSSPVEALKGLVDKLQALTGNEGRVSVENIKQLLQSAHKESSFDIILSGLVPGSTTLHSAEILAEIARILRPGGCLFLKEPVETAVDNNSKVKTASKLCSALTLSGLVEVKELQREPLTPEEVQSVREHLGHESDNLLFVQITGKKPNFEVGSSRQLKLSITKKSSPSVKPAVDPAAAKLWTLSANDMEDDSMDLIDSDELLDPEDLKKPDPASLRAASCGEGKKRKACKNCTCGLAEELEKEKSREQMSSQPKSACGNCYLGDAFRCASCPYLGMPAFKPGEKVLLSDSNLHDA
UniProt Q6DHV7: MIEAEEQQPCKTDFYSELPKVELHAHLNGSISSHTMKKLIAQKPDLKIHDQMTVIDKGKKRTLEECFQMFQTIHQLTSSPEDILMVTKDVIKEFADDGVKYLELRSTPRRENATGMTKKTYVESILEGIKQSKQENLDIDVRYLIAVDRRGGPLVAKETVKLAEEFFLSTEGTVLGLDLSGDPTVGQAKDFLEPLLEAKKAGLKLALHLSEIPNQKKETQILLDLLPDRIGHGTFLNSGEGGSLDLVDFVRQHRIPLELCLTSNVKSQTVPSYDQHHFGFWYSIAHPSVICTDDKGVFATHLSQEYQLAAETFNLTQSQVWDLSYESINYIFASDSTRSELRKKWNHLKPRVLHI
UniProt Q5VT52: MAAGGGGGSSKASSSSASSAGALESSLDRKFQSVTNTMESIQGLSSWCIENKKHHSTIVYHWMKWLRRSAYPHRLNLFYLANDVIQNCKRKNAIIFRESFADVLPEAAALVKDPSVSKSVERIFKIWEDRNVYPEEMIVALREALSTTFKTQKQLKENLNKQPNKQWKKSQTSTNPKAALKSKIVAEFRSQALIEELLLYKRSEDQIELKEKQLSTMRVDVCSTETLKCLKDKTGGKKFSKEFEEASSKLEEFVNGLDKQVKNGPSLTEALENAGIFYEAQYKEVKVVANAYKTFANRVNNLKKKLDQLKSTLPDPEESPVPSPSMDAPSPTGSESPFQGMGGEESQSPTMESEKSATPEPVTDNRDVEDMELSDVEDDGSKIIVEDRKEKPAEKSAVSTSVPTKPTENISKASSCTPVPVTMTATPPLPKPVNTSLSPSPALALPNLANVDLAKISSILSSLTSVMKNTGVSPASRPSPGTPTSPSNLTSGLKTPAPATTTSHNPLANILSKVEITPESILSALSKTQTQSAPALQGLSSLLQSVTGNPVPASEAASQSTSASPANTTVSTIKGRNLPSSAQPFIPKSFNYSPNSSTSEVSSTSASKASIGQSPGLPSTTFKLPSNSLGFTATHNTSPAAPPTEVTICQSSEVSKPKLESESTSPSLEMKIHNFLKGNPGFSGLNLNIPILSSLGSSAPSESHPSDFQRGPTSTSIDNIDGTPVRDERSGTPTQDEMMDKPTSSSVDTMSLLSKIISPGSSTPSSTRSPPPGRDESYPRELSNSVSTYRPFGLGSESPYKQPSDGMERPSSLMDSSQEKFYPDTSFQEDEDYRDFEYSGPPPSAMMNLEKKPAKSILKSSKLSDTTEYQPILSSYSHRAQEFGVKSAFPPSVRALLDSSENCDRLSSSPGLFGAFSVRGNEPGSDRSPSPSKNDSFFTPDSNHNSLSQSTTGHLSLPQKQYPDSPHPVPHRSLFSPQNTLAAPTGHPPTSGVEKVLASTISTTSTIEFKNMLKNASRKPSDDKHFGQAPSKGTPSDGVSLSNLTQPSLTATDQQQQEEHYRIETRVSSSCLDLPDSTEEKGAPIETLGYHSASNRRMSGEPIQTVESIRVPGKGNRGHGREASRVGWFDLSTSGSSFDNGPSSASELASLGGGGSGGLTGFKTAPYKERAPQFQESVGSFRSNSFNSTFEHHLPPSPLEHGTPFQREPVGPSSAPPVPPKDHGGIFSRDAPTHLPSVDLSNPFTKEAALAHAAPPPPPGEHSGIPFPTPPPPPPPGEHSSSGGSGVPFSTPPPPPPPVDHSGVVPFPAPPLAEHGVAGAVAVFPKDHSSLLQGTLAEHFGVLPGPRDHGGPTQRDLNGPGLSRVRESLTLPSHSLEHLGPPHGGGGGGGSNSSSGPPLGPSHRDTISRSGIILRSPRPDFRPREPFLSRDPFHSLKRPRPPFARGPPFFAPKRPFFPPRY

± gives the standard deviation of the averaged measurements. The entries are a selection whose mix differs from that of the whole data set.

Compound in this assay: Nc1ncnc2c1ncn2[C@@H]1O[C@H](COP(=O)(O)OP(=O)(O)NP(=O)(O)O)[C@@H](O)[C@H]1O [adenylyl imidodiphosphate]
Kind of assay: NP40-soluble protein abundance relative to vehicle (solubility fold change) (ratio); higher = more soluble protein in presence of AMP-PNP. The following applies: concentration: 10mM. The method in brief:
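Across three independent experiments, values are fold changes against the detergent-processed vehicle for each replicate, based on vsn-normalised intensities. The samples were Jurkat crude lysate treated with eight concentrations (0.1 to 10 mM) for 10 min at room temperature and then 3 min at 37 °C. Lysate was solubilised with 0.8% NP40 and benzonase, ultracentrifuged, and the supernatant analysed by TMT-labelled LC-MS/MS.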
For the target UniProt Q6P9B6, the NP40-soluble protein abundance stood at 1.01 ± 0.075.

For RAB11FIP1 (UniProt Q6WKZ4), the NP40-soluble protein abundance worked out at 1.03 ± 0.024.

For the target UniProt Q709C8 and related entries, the NP40-soluble protein abundance was 0.864 ± 0.028.

For LARP1 (UniProt Q6PKG0), the NP40-soluble protein abundance was 1.01 ± 0.062.

Take UniProt Q68EM7-2|Q68EM7-3|Q68EM7: the NP40-soluble protein abundance was found to be 1.01 ± 0.026.

For UniProt Q7L4I2 and related entries, the NP40-soluble protein abundance is 0.984 ± 0.049.

For the target CNNM4 (UniProt Q6P4Q7), the NP40-soluble protein abundance amounted to 1.01 ± 0.024.

Regarding TAF3 (UniProt Q5VWG9), the NP40-soluble protein abundance was 1.08 ± 0.035.

For the target TTC27 (UniProt Q6P3X3), the NP40-soluble protein abundance is 0.97 ± 0.04.

With UniProt Q7RTV0, the NP40-soluble protein abundance is 1.19 ± 0.13.

In the case of UniProt Q7KYR7 and related entries, the NP40-soluble protein abundance amounted to 0.985 ± 0.049.

On to USP34 (UniProt Q70CQ2), for which the NP40-soluble protein abundance came out at 0.873 ± 0.014.

As to NAIF1 (UniProt Q69YI7), the NP40-soluble protein abundance was determined as 0.946 ± 0.056.

Consider SDHAF4 (UniProt Q5VUM1), for which the NP40-soluble protein abundance amounted to 0.93 ± 0.03.

For “Q5VV87 and related entries (UniProt O14880)”, the NP40-soluble protein abundance was 1.042 ± 0.01.

Take INTS5 (UniProt Q6P9B9): the NP40-soluble protein abundance was determined as 1.11 ± 0.064.

Take MRPL14 (UniProt Q6P1L8): the NP40-soluble protein abundance is 1.04 ± 0.035.

Take UniProt Q5XUX1 and related entries: the NP40-soluble protein abundance worked out at 0.969 ± 0.028.

As to UniProt Q71RC2 and related entries, the NP40-soluble protein abundance stood at 1.07 ± 0.039.

For the target UniProt Q6FI81 and related entries, the NP40-soluble protein abundance worked out at 1.06 ± 0.035.

Consider UniProt Q7Z434 and related entries, for which the NP40-soluble protein abundance is 0.944 ± 0.032.

As to HS2ST1 (UniProt Q7LGA3), the NP40-soluble protein abundance was found to be 1.2 ± 0.02.

With UniProt Q6ICG6 and related entries, the NP40-soluble protein abundance came to 1.01 ± 0.044.

As for ZCCHC8 (UniProt Q6NZY4), the NP40-soluble protein abundance came to 1.05 ± 0.066.

With UniProt Q6DHV7 and related entries, the NP40-soluble protein abundance amounted to 1.02 ± 0.046.

Regarding UniProt Q5VT52 and related entries, the NP40-soluble protein abundance was 1.11 ± 0.041.
